Patent publication US20200102357A1
Results are given in words; binding and its absence hold for the method and conditions named. Binding can be weak; no strength is given. Tags and fused reporters may be left off the sequences shown.

Assays:
[1] = biological target: purified human αvβ5 integrin (human); test: plate assay on coated αvβ5 integrin, linear regression slope superimposed
[2] = biological target: purified human αvβ5 integrin (human); test: plate assay: wells coated with 5 ng purified human αvβ5 integrin, increasing amounts of rat Angptl4-V5 supernatant, anti-V5 HRP, OD 450 nm

B1: recombinant rat Angptl4-V5 (sialylated), secreted from HEK293 stable cell line (ligand, not shown: small tags and cut ends)
chain: QGRPAQPEPPRFASWDEMNLLAHGLLQLGHGLREHVERTRGQLGALERRMAACGNACQGPKGTDPKDRVPEGQAPETLQSLQTQLKAQNSKIQQLFQKVAQQQRYLSKQNLRIQNLQSQIDLLTPTHLDNGVDKTSRGKRLPKMAQLIGLTPNATRLHRPPRDCQELFQEGERHSGLFQIQPLGSPPFLVNCEMTSDGGWTVIQRRLNGSVDFNQSWEAYKDGFGDPQGEFWLGLEKMHSITGDRGSQLAVQLQDWDGNAKLLQFPIHLGGEDTAYSLQLTEPTANELGATNVSPNGLSLPFSTWDQDHDLRGDLNCAKSLSGGWWFGTCSHSNLNGQYFHSIPRQRQQRKKGIFWKTWKGRYYPLQATTLLIQPMEATAAS
modifications: sialylated (cells cultured with ManNAc)
[1]
  binding: binds
[2]
  binding: binds
